Data on 3 substances can be found in article PMC8654936.

By UniProt entry, the sequences of proteins in these tests, tags left out. Where a name states a change or a piece, a line headed by the entry shows the natural chain unless it says otherwise. Residues count along the entry.
UniProt O15553: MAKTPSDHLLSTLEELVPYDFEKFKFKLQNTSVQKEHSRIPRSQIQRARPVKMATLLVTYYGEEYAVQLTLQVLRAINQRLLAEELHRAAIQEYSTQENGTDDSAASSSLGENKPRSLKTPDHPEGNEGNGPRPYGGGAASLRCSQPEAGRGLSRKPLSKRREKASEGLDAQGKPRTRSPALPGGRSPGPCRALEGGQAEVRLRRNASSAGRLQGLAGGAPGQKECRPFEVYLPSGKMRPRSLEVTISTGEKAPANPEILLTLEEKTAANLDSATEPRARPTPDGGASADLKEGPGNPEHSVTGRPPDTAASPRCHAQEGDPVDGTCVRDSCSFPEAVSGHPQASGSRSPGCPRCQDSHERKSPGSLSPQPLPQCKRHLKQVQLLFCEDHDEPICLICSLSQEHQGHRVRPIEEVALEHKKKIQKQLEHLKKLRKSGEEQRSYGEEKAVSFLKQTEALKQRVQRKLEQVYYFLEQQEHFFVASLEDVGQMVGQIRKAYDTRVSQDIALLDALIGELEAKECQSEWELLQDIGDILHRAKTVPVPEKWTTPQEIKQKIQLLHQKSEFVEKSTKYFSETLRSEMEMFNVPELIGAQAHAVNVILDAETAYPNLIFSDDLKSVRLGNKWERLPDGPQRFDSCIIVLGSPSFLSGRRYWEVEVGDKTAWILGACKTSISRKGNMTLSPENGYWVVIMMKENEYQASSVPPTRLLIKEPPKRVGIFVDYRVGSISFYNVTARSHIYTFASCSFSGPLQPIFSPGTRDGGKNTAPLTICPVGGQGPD
UniProt P61769: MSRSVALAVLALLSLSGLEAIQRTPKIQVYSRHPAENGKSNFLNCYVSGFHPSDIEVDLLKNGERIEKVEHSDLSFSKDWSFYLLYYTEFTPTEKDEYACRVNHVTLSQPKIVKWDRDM
UniProt P29466, residues 120-297: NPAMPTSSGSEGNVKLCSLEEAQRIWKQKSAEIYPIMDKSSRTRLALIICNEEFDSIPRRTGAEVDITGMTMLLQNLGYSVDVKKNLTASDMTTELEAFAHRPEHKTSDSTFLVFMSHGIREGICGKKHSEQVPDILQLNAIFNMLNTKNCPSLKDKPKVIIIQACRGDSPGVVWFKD

These are yes or no findings as the source states them, for the method shown. In cells and extracts the contact can be indirect. Binding can be weak; no strength is given.

Experiment [1] concerns the target FLAG-tagged pyrin PRY/SPRY domain (exon 10) (human) (UniProt O15553). The experiment is described as follows: co-IP; Lenti-X 293T cells co-transfected; lysis buffer 20 mM Tris–HCl pH 6.0, 120 mM NaCl, 5% glycerol, 0.5% Triton X-100; anti-FLAG Ab agarose beads, 1 h at 4 °C; blot for V5; some samples with or without co-expressed V5-β2MG.
For experiment [2], the target named is V5-tagged β2-microglobulin (human) (UniProt P61769). The experiment is described as follows: co-IP; reciprocal: Lenti-X 293T cells co-transfected; same lysis buffer; anti-V5 Ab magnet beads, 1 h at 4 °C; blot for FLAG.

“V5-tagged β2-microglobulin (from UniProt P61769 21-119)”: in experiment [1], the binding entry is “binds”. For the substance “V5-tagged caspase-1 p20 subunit (from UniProt P29466 120-297) (domain or fragment)”, the binding entry in experiment [1] was “binds”. Regarding “FLAG-tagged pyrin PRY/SPRY domain (exon 10) (from UniProt O15553) (domain or fragment)”, the binding result in experiment [2] was “binds”.
